Literature values in US12649952B2, “NTRK fusion molecules and uses thereof” (Foundation Medicine, Inc., priority 2019, dated 2026).
Read-outs that look alike come from different tables or passages of the source. For at least one compound, name, drawing or mass did not settle the structure.

Tested on: NTRK fusion-positive cancers

SMILES: C[C@@H]1CCc2ncc(F)cc2[C@H]2CCCN2c2ccn3ncc(c3n2)C(=O)N1 [selitrectinib]
- ORR (NTRK fusion-positive cancers previously treated with at least 1 prior TRK inhibitor (10/29)): 34%
- ORR (patients harboring a TRK kinase mutation (9/20)): 45%
